One experiment deals with HA‐tagged BHLHE40 (UniProt O14503). The experiment is described as follows: co-IP; transfected HEK293T cells expressing HA-tagged BHLHE40 and FLAG-tagged GATA2 or GATA3; anti-HA or anti-DDDDK antibody on protein A/G magnetic beads; lysis in 20 mM Tris-HCl pH 7.5, 300 mM NaCl, 0.1% Triton X-100 with Benzonase; overnight at 4 °C; western blotting. (In general: In western blotting, separated proteins are transferred to a membrane and probed.)

Chains of the proteins cited; added tags and fusions are not shown.
UniProt O14503: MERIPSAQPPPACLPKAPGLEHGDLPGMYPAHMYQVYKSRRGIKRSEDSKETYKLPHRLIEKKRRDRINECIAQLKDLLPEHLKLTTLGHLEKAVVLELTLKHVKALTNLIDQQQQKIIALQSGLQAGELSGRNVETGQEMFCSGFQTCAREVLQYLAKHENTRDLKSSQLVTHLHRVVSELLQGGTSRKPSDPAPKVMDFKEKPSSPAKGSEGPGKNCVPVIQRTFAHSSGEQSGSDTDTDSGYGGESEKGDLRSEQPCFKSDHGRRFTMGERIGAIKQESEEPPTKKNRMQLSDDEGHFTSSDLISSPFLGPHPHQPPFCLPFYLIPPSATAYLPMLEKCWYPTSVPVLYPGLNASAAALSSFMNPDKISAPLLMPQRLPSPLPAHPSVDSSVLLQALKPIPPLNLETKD
UniProt P23769: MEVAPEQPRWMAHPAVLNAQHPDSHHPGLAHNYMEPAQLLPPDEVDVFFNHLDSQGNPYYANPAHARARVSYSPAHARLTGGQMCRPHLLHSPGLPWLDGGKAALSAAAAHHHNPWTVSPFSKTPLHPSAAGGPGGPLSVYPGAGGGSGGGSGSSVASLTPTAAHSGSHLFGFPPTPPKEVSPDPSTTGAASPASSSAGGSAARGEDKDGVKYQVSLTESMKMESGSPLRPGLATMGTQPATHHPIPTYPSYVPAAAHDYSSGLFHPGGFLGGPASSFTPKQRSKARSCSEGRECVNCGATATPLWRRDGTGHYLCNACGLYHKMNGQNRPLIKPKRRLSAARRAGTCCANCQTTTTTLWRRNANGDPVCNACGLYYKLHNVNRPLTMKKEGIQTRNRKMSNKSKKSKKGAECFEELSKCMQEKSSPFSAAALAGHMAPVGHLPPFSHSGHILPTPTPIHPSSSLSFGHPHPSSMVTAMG
UniProt P23771: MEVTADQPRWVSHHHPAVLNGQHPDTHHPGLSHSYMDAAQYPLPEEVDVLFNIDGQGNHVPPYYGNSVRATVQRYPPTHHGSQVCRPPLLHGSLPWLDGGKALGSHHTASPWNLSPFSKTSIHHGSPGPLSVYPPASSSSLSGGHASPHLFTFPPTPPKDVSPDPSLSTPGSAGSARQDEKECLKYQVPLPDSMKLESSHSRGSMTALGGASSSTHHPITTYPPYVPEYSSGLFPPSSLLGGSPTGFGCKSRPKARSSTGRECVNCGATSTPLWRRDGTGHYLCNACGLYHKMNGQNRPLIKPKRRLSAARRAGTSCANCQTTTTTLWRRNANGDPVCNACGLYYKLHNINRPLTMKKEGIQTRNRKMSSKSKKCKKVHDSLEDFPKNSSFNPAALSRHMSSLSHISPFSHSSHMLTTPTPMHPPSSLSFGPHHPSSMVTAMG
UniProt Q92754: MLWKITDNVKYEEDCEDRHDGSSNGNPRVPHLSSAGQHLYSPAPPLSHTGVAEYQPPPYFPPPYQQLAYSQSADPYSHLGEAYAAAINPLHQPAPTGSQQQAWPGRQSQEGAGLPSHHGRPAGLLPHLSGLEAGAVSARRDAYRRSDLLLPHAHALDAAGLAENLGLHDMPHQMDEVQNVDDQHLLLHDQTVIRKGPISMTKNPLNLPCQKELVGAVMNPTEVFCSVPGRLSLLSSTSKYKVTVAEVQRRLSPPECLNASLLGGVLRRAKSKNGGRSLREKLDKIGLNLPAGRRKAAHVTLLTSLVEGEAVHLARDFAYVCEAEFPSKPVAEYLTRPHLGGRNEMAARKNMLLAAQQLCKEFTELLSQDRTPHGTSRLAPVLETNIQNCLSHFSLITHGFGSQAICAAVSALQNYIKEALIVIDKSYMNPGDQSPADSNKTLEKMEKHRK

Experiment [1] addresses basic helix‐loop‐helix family member 40 (BHLHE40) (human (endogenous in STBs from human TSCs)) (UniProt O14503). The experiment is described as follows: co-IP; endogenous proteins in STB lysate; anti-BHLHE40 antibody (Santa Cruz sc-101023) on protein A/G magnetic beads, IgG control; lysis in 20 mM Tris-HCl pH 7.5, 300 mM NaCl, 0.1% Triton X-100 with Benzonase; overnight at 4 °C; five washes with TBST; western blotting.

Another experiment deals with FLAG‐tagged GATA2 (UniProt P23769). The experiment is described as follows: co-IP; transfected HEK293T cells expressing HA-tagged BHLHE40 and FLAG-tagged GATA2 or GATA3; anti-HA or anti-DDDDK antibody on protein A/G magnetic beads; lysis in 20 mM Tris-HCl pH 7.5, 300 mM NaCl, 0.1% Triton X-100 with Benzonase; overnight at 4 °C; western blotting.
The next experiment concerns the target FLAG‐tagged GATA3 (UniProt P23771). The experiment is described as above.

No constants are given. Whether binding was seen depends on the method and setting. Binding seen in cells or lysates may run through a third protein. Some binding calls cover weakened binding; strength is not graded here.

With “FLAG‐tagged GATA2 (from UniProt P23769 1-480)”, in the experiment with HA‐tagged BHLHE40, the binding result was “binds”.
In the case of “FLAG‐tagged GATA3 (from UniProt P23771 1-443)”, in the experiment with HA‐tagged BHLHE40, the binding result is listed as “binds”.
For the substance GATA2 (from UniProt P23769 1-480), the binding result in experiment [1] was “binds”.
For the substance GATA3 (from UniProt P23771 1-443), the binding entry in experiment [1] is “binds”.
Regarding “HA‐tagged BHLHE40 (from UniProt O14503 1-412)”, the binding result with FLAG‐tagged GATA2 and with FLAG‐tagged GATA3 was “binds” throughout.
For the substance TFAP2C (from UniProt Q92754 1-450), the binding result in experiment [1] is on record as “binds weakly”.
